Data as given in publication PMC3750045, “Human RNase H1 Is Associated with Protein P32 and Is Involved in Mitochondrial Pre-rRNA Processing” (PLoS ONE, 2013).

Chains of the proteins cited; added tags and fusions are not shown. Residues count along the entry.
UniProt O75792: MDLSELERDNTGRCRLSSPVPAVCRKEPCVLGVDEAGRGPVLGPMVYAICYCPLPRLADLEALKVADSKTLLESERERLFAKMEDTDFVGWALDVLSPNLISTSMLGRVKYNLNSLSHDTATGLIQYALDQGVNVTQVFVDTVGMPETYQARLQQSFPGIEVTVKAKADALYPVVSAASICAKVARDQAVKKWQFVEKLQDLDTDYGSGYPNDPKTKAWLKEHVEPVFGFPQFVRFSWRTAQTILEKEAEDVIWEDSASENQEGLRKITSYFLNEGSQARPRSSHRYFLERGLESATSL
UniProt Q07021, residues 74-282: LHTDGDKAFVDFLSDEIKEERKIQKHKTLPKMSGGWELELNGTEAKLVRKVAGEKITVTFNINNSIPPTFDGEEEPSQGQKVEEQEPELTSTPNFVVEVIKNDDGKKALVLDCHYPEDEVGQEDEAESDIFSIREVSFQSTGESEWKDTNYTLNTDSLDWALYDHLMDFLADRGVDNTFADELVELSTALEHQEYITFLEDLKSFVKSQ

What was measured:
[1] = biological target: T1, N-terminal Flag-tagged human RNase H1 (human) (UniProt O60930); assay: affinity purification with mass spectrometry; anti-flag beads on about 5 mg lysate of Flag-H1 or Flag-H2 stable lines; RIPA washes; DIGE CyDye labelling, 2D gel electrophoresis, spots identified by mass spectrometry
T1 sequence: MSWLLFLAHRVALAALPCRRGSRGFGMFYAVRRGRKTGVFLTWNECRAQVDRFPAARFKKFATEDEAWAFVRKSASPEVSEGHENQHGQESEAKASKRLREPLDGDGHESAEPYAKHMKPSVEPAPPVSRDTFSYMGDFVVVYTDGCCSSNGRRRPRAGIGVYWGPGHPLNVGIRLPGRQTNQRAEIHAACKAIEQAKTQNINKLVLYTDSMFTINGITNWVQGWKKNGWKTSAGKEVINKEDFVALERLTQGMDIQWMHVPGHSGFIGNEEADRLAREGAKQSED

[2] = biological target: T2, C-terminal HA-tagged human RNase H1 (human) (UniProt O60930); assay: affinity purification with mass spectrometry; anti-Flag or anti-HA beads on extracts of HEK lines stably expressing Flag-H1, Flag-H2 or HA-H1; washed four times with RIPA buffer; SDS-PAGE, silver staining, band excised and identified by mass spectrometry
T2 sequence: T1 sequence

[3] = biological target: T1, N-terminal Flag-tagged human RNase H1 (human); assay: as above
[4] = biological target: N-terminal Flag-tagged human RNase H2 (human) (UniProt O75792); assay: as above

binding [1]: binds | binding [2]: binds | binding [3]: binds | binding [4]: no binding
Substance: P32 (endogenous mitochondrial protein P32) (from UniProt Q07021 74-282)

These are yes or no findings as the source states them, for the method shown. Binding seen in cells or lysates may run through a third protein. A yes stands for co-enrichment or nearness to the bait. Other partners may have been found. For some of these results: A no says only that the protein was not detected with the bait. For some of these results: Sequences can lack the tags named with a protein.
